Assay results from PMC11079228.

B1: DAB2 (protein, UniProt O88797 1-768)
chain: MSNEVETSTTNGQPDQQAAPKAPSKKEKKKGSEKTDEYLLARFKGDGVKYKAKLIGIDDVPDARGDKMSQDSMMKLKGMAAAGRSQGQHKQRIWVNISLSGIKIIDEKTGVIEHEHPVNKISFIARDVTDNRAFGYVCGGEGQHQFFAIKTGQQAEPLVVDLKDLFQVIYNVKKKEEEKKKVEEANKAEENGSEALMTLDDQANKLKLGVDQMDLFGDMSTPPDLNNPTESRDILLVDLNSEIDTNQNSLRENPFLTNGVTSCSLPRPKPQASFLPESAFSANLNFFPTPNPDPFRDDPFAQPDQSAPSSFHSLTSADQKKANPGSLSTPQSKGPLNGDTDYFGQQFDQISNRTGKQEAQGGPWPYPSSQTQQAVRTQNGVSEKEQNGFHIKSSPNPFVGSPPKGLSVPNGVKQDLESSVQSSAHDSIAIIPPPQSTKPGRGRRTAKSSANDLLASDIFASEPPGQMSPTGQPAVPQANFMDLFKTSAPAPMGSGPLVGLGTVPVTPPQAGPWTPVVFTPSTTVVPGAIISGQPSGFGQPLVFGTTPAVQVWNQPSSFATAASPPPPAVWCPTTSVAPNTWSSTSPLGNPFQSSNIFPPSTISTQSFPQPMMSSVLVTPPQPPPRNGPLKDTLSDAFTGLDPLGDKEVKEVKEMFKDFQLRQPPLVPSRKGETPSSGTSSAFSSYFNNKVGIPQEHVDHDDFDANQLLNKINEPPKPAPRQGVLSGTKSADNSLENPFSKGFSSTNPSVVSQPASSDAHRSPFGNPFA
B2: CSDE1 (protein, UniProt P18395 1-798)
chain: MSFDPNLLHNNGHNGYPNGTSAALRETGVIEKLLTSYGFIQCSERQARLFFHCSQYNGNLQDLKVGDDVEFEVSSDRRTGKPIAIKLVKIKPEIHPEERMNGQVVCAVPHNLESKSPAAPGQSPTGSVCYERNGEVFYLTYTSEDVEGNVQLETGDKINFVIDNNKHTGAVSARNIMLLKKKQARYQGVVCAMKEAFGFIERGDVVKEIFFHYSEFKGDLETLQPGDDVEFTIKDRNGKEVATDVRLLPQGTVIFEDISIEHFEGTVTKVIPKVPSKNQNDPLPGRIKVDFVIPKELPFGDKDTKSKVTLLEGDHVRFNISTDRRDKLERATNIEVLSNTFQFTNEAREMGVIAAMRDGFGFIKCVDRDARMFFHFSEILDGNQLHIADEVEFTVVPDMLSAQRNHAIRIKKLPKGTVSFHSHSDHRFLGTVEKEATFSNPKTTSPNKGKDKEAEDGIIAYDDCGVKLTIAFQAKDVEGSTSPQIGDKVEFSISDKQRPGQQIATCVRLLGRNSNSKRLLGYVATLKDNFGFIETANHDKEIFFHYSEFSGDVDSLELGDMVEYSLSKGKGNKVSAEKVNKTHSVNGITEEANPTIYSGKVIRPLRGVDPTQIEYQGMIEIVEEGDMKGEVYPFGIVGMANKGDCLQKGESVKFQLCVLGQNAQTMAYNITPLRRATVECVKDQFGFINYEVGDSKKLFFHVKEVQDGIELQAGDEVEFSVILNQRTGKCSACNVWRVCEGPKAVAAPRPDRLVNRLKNITLDDASAPRLMVLRQPRGPDNSMGFGAERKIRQAGVID
B3: GAK (protein, UniProt P97874 1-1305)
chain: MSLLQSALDFLAGPGSLGGAAGRDQSDFVGQTVELGELRLRVRRVLAEGGFAFVYEAQDLGSGREYALKRLLSNEEEKNRAIIQEVCFLKKLSGHPNIVQFCSAASIGKEESDTGQAEFLLLTELCKGQLVEFLRRVECKGPLSCDSILKIFYQTCRAVQHMHRQKPPIIHRDLKVENLLLSNQGTIKLCDFGSATTISHYPDYSWSAQKRAMVEEEITRNTTPMYRTPEIVDLYSNFPIGEKQDIWALGCILYLLCFRQHPFEDGAKLRIVNGKYSIPVNDTRYTVFHDLIRGMLKVNPEERLSIAEVVRQLQEIAAARNVNPKAPITELLEQNGGYGNSGPSRAQPPSGGPVNSSGVLALAEYDQPYGGFLDILRGGTERLFTNLKDTSSKVIQSVANYAKGDLDISYITSRIAVMSFPAEGVESAIKNNIEDVRLFLDAKHPGHYAVYNLSPRIYRASKFHNRVTECGWAVRRAPHLHSLYTLCRSMHAWLREDHRNVCVVHCMDGRAASAVAVCAFLCFCRLFSTAEAAVYMFSMKRCPPGIWPSHKRYIEYVCDMVAEEPITPHSKPMLVKSVVMTPVPLFSKQRNGCRPFCEVYVGEERVTTTSQEYDRMKEFKIEDGKAVIPLGITVQGDVLTIIYHARSTLGGRLQAKMASMKMFQIQFHTGFVPRNATTVKFAKYDLDACDIQEKYPDLFQVNLEVEVEPRDRPSRDVPPWENTSLRGLNPKILFSNREEQQDILSKFGKPELPRQPGSTAQYDAEAGSPEAEITESDSPQSSSTDTNHFLHTLDWQEEKDPETGVDNTSPKESQSNLIADGDGSEVSDEEEASCPSEERKPGAGEDTPRLAAGTRQQDLIFDVGMLAAPQEPVQPEEGVDLLGLHSEGDLRPAAPLQASGVQSSNTDLLSSLLEPSDASQVGPPGDLLGGETPLLLASPVSLLGVQSNLQGKVPDTVDPFDQFLLPSSSDTQPCSKPDLFGEFLNSDSVASSTAFPSTHSAPPPSCSTAFLHLGDLPAEPNKVIASSSHPDLLGGWDTWAETALPGPASMPVPEGTLFSSAGHPAPPGPNPSQTKSQNPDPFADLSDLSSSLQGLPAGLPAGSFVGTSATTHKSNSSWQTTRPTAPGTSWPPQAKPAPRASEQLRSHFSVIGAREERGVRAPSFAQKPKVSENDFEDLLPNQGFSKSDKKGPKTMAEMRKQELARDTDPFKLKLLDWIEGKERNIRALLSTLHTVLWDGESRWTPVSMADLVTPEQVKKQYRRAVLVVHPDKATGQPYEQSAKMIFMELNDAWSEFENQGSRPLF
B4: UBXN1 (protein, UniProt Q499N6 1-297)
chain: MAELTALESLIEMGFPRGRAEKALALTGNQGIEAAMDWLMEHEDDPDVDEPLETPLSHILGREPTPSEQVGPEGSGSAAGESKPVLTEEERQEQTKRMLELVAQKQREREEREEREALEREKQRRRQGQELSAARQKLQEDEIRRAAEERRREKAEELAARQRVREKIERDKAERAQKYGGTVGSRSSPPATDPGPVPSSPRQEPPTKREYDQCRIQVRLPDGTSLTQTFRAREQLAAVRLYVELHRGEEPGQDQDPVQLLSGFPRRAFSEADMERPLQELGLVPSAVLIVAKKCPS
B5: bolA family member 2 (protein, UniProt D4A9P7 1-86)
chain: MELSADYLREKLRQDLEAEHVEVEDTTLNRCATSFRVLVVSAKFEGKPLLQRHRLVNECLAEELPHIHAFEQKTLTPEQWTRQRQE
B6: Carbonic anhydrase 3 (protein, UniProt P14141 1-260)
chain: MAKEWGYASHNGPEHWHELYPIAKGDNQSPIELHTKDIRHDPSLQPWSVSYDPGSAKTILNNGKTCRVVFDDTFDRSMLRGGPLSGPYRLRQFHLHWGSSDDHGSEHTVDGVKYAAELHLVHWNPKYNTFGEALKQPDGIAVVGIFLKIGREKGEFQILLDALDKIKTKGKEAPFNHFDPSCLFPACRDYWTYHGSFTTPPCEECIVWLLLKEPMTVSSDQMAKLRSLFASAENEPPVPLVGNWRPPQPIKGRVVRASFK
B7: T-complex protein 1 subunit beta (protein, UniProt Q5XIM9 1-535)
chain: MASLSLAPVNIFKAGADEERAETARLSSFIGAIAIGDLVKSTLGPKGMDKILLSSGRDASLMVTNDGATILKNIGVDNPAAKVLVDMSRVQDDEVGDGTTSVTVLAAELLREAESLIAKKIHPQTIIAGWREATKAAREALLSSAVDHGSDEVKFWQDLMNIAGTTLSSKLLTHHKDHFTKLAVEAVLRLKGSGNLEAIHVIKKLGGSLADSYLDEGFLLDKKIGVNQPKRIENAKILIANTGMDTDKIKIFGSRVRVDSTAKVAEIEHAEKEKMKEKVERILKHGINCFINRQLIYNYPEQLFGAAGVMAIEHADFAGVERLALVTGGEIASTFDHPELVKLGSCKLIEEVMIGEDKLIHFSGVALGEACTIVLRGATQQILDEAERSLHDALCVLAQTVKDPRTVYGGGCSEMLMAHAVTMLASRTPGKEAVAMESFAKALRMLPTIIADNAGYDSADLVAQLRAAHSEGRITAGLDMKEGSIGDMAVLGITESFQVKRQVLLSAAEAAEVILRVDNIIKAAPRKRVPDHHPC
B8: chromatin modifying protein 4B-like 1 (protein, UniProt D4A9Z8 1-224)
chain: MSVFGKLFGAGWGKAGKGDPTPQEAIQRLRDTEEMLSKKQEFLEKKIEQELTAAKKHGTKNKRAALQALKRKKRYEKQLAQIDGTLSTIEFQREALENANTNTEVLKNMGYAAKAMKAAHDNMDIDKVDELMQDIADQQELAEQTSTAISKPVGFGEEFDKDELMAELEELEQEELDKNLLEISGPETVPLPNVPSVALPSKPAKKKEEEDDDMKELENWAGSM

Molecular target: Huntingtin-interacting protein 1 (rat) (rat (endogenous in rat FLS))
Assay: affinity purification with mass spectrometry; rabbit anti-rat-HIP1 antibody (20 μg per sample) on Dynabeads M-270 Epoxy; total lysates of rat FLS (one DA and one R6 cell line, each in triplicate), starved 24 h, then PDGFβ 100 ng/mL 30 min; lysis in water with protease and phosphatase inhibitors by three freeze-thaw cycles; elution with 8 M urea, LysC and trypsin, nano-LC-MS/MS, label-free quantitation

Binder	binding
B1	binds
B2	binds
B3	binds
B4	binds
B5	binds
B6	binds
B7	binds
B8	binds

Results are given in words; binding and its absence hold for the method and conditions named. In cells and extracts the contact can be indirect. A yes stands for co-enrichment or nearness to the bait. Other partners may have been found.
